The source of these data is article PMC8081163.

Protein sequences, listed by entry. Tags and fused reporters are not part of them. Lines headed by an entry give the natural chain unless they say otherwise; changes in a name come on top.
UniProt Q61656: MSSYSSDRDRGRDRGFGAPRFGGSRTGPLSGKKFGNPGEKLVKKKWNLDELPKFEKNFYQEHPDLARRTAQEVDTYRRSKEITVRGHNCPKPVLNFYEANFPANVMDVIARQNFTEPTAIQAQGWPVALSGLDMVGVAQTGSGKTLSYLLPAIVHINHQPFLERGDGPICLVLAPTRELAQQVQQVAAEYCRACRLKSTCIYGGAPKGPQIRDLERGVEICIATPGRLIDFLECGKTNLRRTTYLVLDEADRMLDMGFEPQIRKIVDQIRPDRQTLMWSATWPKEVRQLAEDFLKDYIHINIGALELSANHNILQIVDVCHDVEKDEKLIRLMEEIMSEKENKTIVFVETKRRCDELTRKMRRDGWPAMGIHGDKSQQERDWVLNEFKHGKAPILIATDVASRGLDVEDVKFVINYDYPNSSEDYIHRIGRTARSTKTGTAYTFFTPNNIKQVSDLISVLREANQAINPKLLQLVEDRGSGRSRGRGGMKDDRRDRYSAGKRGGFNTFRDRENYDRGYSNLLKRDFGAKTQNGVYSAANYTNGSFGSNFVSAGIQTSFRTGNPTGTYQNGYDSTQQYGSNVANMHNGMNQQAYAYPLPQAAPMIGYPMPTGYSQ
UniProt Q8C3P7: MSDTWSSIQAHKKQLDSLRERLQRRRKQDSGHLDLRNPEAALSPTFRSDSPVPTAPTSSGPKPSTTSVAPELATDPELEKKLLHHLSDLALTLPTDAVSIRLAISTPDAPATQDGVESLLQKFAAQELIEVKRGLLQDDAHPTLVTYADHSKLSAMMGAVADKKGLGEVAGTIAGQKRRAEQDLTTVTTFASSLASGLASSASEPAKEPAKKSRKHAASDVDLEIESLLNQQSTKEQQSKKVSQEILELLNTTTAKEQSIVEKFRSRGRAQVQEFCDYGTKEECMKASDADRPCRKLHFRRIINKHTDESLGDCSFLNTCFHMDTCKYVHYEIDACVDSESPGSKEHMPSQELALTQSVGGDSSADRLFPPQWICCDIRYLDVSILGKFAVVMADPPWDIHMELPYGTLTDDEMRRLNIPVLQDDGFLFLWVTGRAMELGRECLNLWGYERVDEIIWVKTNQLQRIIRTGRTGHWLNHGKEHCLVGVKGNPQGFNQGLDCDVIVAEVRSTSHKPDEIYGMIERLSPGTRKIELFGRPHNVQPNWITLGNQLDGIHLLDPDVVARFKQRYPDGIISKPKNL

For assay [1], the target named is DDX5 (endogenous, mouse cells) (mouse (endogenous in MEFs NIH/3T3 and macrophages J774A.1)) (UniProt Q61656). Briefly: co-IP.
The target of assay [2] is METTL3 (endogenous, mouse cells) (mouse (endogenous in MEFs NIH/3T3 and macrophages J774A.1)) (UniProt Q8C3P7). Description: co-IP; endogenous METTL3 and METTL14 in MEFs transfected with doses of DDX5 siRNA or EGF-DDX5 plasmid, then VSV (MOI = 10) for 8 h; NP40 lysis; IP with rabbit METTL3 antibody or IgG; western blot. (In general: In western blotting, separated proteins are transferred to a membrane and probed.)

Results are given in words; binding and its absence hold for the method and conditions named. Binding seen in cells or lysates may run through a third protein. Some results given as binding are weak or reduced against the parent protein; the word gives no strength.

As for “METTL3 (endogenous, mouse cells) (from UniProt Q8C3P7 1-580)”, in assay [1], the binding entry is recorded as “binds”.

B1: METTL14 (endogenous, MEFs) (protein, UniProt Q3UIK4 1-456)
chain: MDSRLQEIRERQKLRRQLLAQQLGAESADSIGAVLNSKDEQREIAETRETCRASYDTSAPNSKRKCLDEGETDEDKVEEYKDELEMQQEEENLPYEEEIYKDSSTFLKGTQSLNPHNDYCQHFVDTGHRPQNFIRDVGLADRFEEYPKLRELIRLKDELIAKSNTPPMYLQADIEAFDIRELTPKFDVILLEPPLEEYYRETGITANEKCWTWDDIMKLEIDEIAAPRSFIFLWCGSGEGLDLGRVCLRKWGYRRCEDICWIKTNKNNPGKTKTLDPKAVFQRTKEHCLMGIKGTVKRSTDGDFIHANVDIDLIITEEPEIGNIEKPVEIFHIIEHFCLGRRRLHLFGRDSTIRPGWLTVGPTLTNSNYNAETYASYFSAPNSYLTGCTEEIERLRPKSPPPKSKSDRGGGAPRGGGRGGTSAGRGRERNRSNFRGERGGFRGGRGGTHRGGFTPR
B1: the binding entry in assay [2] is recorded as “binds”.
